PubChem BioAssay AID1224830, NIAID | 2016
In all, the deposit lists about 18,000 reagents; below is a random part of them. About 2,900 of all reagents (16%) count as active. 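Calls are made per well; low scores hint the gene aids the LPS response, high scores that it dampens it.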 Unmarked entries are inactive. Repeated entries: four replicate wells of each siRNA pool.

- Purpose: 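Host factors that control LPS-induced TNF expression in human macrophages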 (primary screen)
- Cells: human THP-1 monocytic leukaemia cells, TNF dual-luciferase reporter clone, PMA-differentiated to macrophage-like cells
- Knock-down reagent: siRNA pool against human genes, 50 nM
- Time to read-out: LPS for 4 h, given about 3 days after siRNA transfection
- Challenge: bacterial LPS (TLR4 ligand), 10 ng/ml
- Measurement: 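TNF firefly reporter luminescence divided by renilla, normalised to the plate median, then turned into a robust z-score for each replicate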
- Reading the numbers: TNF reporter robust z-score: higher = stronger TNF reporter response to LPS
- Hit rule: 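a well is active when its z-score exceeds 2.8 or falls below -1.5; control wells carry no call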

With PLCL2, what was measured?
TNF reporter robust z-score: 0.48

What is on record for PLCL2?
TNF reporter robust z-score: 0

For PLCL2, how do the results read?
TNF reporter robust z-score: -0.35

What is on record for PLCL2?
TNF reporter robust z-score: 44.2 (active)

For SNPH, how do the results read?
TNF reporter robust z-score: -0.06

What did the screen give for SNPH?
TNF reporter robust z-score: 0.26

What is on record for SNPH?
TNF reporter robust z-score: 1.51

What is on record for SNPH?
TNF reporter robust z-score: 0.81

With YY1AP1, how do the results read?
TNF reporter robust z-score: 0.79

What did the screen give for YY1AP1?
TNF reporter robust z-score: 1.34

With YY1AP1, what was measured?
TNF reporter robust z-score: 0.88

What did the screen give for YY1AP1?
TNF reporter robust z-score: 0.83

With ADGRL4, how do the results read?
TNF reporter robust z-score: -0.3

What did the screen give for ADGRL4?
TNF reporter robust z-score: -0.91

With ADGRL4, what was measured?
TNF reporter robust z-score: -1.65 (active)

With ADGRL4, how do the results read?
TNF reporter robust z-score: -0.92

What did the screen give for FER1L6?
TNF reporter robust z-score: 0.42

How did the screen score FER1L6?
TNF reporter robust z-score: 0.11

For FER1L6, how do the results read?
TNF reporter robust z-score: 0.21

Which result is listed for FER1L6?
TNF reporter robust z-score: -0.69

Which result is listed for PAGE2B?
TNF reporter robust z-score: -0.4

With PAGE2B, how do the results read?
TNF reporter robust z-score: 0.34

With PAGE2B, what does the deposit list?
TNF reporter robust z-score: 0.67

For PAGE2B, how do the results read?
TNF reporter robust z-score: 0.75

Which result is listed for CASP6?
TNF reporter robust z-score: -1.05

How did the screen score CASP6?
TNF reporter robust z-score: -0.47

For CASP6, what was measured?
TNF reporter robust z-score: 0.18

For CASP6, what was measured?
TNF reporter robust z-score: -0.27

Which result is listed for PDS5A?
TNF reporter robust z-score: 0.68

With PDS5A, what was measured?
TNF reporter robust z-score: 0.58

With PDS5A, how do the results read?
TNF reporter robust z-score: 1.54

With PDS5A, what was measured?
TNF reporter robust z-score: -0.15

What did the screen give for HYPK?
TNF reporter robust z-score: -1.16

With HYPK, what was measured?
TNF reporter robust z-score: -0.91

With HYPK, what does the deposit list?
TNF reporter robust z-score: -1.96 (active)

Which result is listed for HYPK?
TNF reporter robust z-score: -1.49

Which result is listed for RPP25?
TNF reporter robust z-score: -1.82 (active)

For RPP25, what does the deposit list?
TNF reporter robust z-score: -1.39

What did the screen give for RPP25?
TNF reporter robust z-score: -1.37

With RPP25, what was measured?
TNF reporter robust z-score: -1.32

What is on record for CRACR2B?
TNF reporter robust z-score: -0.77

For CRACR2B, how do the results read?
TNF reporter robust z-score: 0.13

With CRACR2B, what does the deposit list?
TNF reporter robust z-score: -0.6

For CYP11B2, how do the results read?
TNF reporter robust z-score: 1.43

For CYP11B2, what was measured?
TNF reporter robust z-score: 0.52

Which result is listed for CYP11B2?
TNF reporter robust z-score: 1.27

How did the screen score CYP11B2?
TNF reporter robust z-score: 1.09

For PRIM2, what does the deposit list?
TNF reporter robust z-score: -0.12

What is on record for PRIM2?
TNF reporter robust z-score: -0.4

With PRIM2, what was measured?
TNF reporter robust z-score: 2.36

For PRIM2, how do the results read?
TNF reporter robust z-score: -0.38

With ARFIP2, what was measured?
TNF reporter robust z-score: 4 (active)

Which result is listed for ARFIP2?
TNF reporter robust z-score: 1.19

For ARFIP2, what does the deposit list?
TNF reporter robust z-score: 0.16

What is on record for ARFIP2?
TNF reporter robust z-score: 1.4

With SNAP47, how do the results read?
TNF reporter robust z-score: 0.1

For SNAP47, what does the deposit list?
TNF reporter robust z-score: 1.85

With SNAP47, how do the results read?
TNF reporter robust z-score: 0.89

For SNAP47, how do the results read?
TNF reporter robust z-score: 2.75

With WDSUB1, what does the deposit list?
TNF reporter robust z-score: 0.39

For WDSUB1, how do the results read?
TNF reporter robust z-score: 0.77

What is on record for WDSUB1?
TNF reporter robust z-score: 0.85

Which result is listed for WDSUB1?
TNF reporter robust z-score: 3.31 (active)
